Measured values published in the supplement of paper PMC7666118.
The list shows a part of the results.

By UniProt entry, the sequences of proteins in these tests, tags left out. Where a name states a change or a piece, a line headed by the entry shows the natural chain unless it says otherwise.
UniProt P23743: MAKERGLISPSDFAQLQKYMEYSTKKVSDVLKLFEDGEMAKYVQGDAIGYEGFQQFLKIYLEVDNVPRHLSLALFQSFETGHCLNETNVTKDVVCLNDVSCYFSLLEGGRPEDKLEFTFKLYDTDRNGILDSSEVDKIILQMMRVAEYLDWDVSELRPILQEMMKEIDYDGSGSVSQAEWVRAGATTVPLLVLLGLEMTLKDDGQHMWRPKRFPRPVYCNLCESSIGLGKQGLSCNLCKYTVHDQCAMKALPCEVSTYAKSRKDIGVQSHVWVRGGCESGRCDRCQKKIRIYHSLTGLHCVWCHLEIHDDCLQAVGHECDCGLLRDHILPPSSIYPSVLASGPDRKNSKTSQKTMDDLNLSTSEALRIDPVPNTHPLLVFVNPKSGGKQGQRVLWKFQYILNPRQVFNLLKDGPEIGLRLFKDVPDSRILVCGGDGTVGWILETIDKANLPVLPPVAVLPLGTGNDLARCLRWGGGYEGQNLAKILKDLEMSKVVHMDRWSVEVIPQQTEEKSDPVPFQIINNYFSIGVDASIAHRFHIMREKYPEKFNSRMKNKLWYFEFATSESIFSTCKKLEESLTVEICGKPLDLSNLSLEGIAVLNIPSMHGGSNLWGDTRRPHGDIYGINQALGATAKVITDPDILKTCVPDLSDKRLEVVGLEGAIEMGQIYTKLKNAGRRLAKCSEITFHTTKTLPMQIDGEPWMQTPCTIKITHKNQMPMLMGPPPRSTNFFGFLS
UniProt P53634: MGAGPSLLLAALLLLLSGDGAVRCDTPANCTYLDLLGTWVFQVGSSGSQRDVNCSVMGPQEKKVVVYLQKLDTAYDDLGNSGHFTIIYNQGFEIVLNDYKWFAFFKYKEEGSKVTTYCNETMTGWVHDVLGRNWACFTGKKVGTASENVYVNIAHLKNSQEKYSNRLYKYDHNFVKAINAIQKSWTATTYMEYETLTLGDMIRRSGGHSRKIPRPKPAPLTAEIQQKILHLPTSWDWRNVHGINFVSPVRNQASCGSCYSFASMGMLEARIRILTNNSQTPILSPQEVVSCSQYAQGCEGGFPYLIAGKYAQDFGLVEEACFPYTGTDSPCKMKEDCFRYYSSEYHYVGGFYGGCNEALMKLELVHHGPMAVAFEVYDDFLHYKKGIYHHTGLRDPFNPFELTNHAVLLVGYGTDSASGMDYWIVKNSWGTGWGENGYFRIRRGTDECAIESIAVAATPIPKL
UniProt Q14689: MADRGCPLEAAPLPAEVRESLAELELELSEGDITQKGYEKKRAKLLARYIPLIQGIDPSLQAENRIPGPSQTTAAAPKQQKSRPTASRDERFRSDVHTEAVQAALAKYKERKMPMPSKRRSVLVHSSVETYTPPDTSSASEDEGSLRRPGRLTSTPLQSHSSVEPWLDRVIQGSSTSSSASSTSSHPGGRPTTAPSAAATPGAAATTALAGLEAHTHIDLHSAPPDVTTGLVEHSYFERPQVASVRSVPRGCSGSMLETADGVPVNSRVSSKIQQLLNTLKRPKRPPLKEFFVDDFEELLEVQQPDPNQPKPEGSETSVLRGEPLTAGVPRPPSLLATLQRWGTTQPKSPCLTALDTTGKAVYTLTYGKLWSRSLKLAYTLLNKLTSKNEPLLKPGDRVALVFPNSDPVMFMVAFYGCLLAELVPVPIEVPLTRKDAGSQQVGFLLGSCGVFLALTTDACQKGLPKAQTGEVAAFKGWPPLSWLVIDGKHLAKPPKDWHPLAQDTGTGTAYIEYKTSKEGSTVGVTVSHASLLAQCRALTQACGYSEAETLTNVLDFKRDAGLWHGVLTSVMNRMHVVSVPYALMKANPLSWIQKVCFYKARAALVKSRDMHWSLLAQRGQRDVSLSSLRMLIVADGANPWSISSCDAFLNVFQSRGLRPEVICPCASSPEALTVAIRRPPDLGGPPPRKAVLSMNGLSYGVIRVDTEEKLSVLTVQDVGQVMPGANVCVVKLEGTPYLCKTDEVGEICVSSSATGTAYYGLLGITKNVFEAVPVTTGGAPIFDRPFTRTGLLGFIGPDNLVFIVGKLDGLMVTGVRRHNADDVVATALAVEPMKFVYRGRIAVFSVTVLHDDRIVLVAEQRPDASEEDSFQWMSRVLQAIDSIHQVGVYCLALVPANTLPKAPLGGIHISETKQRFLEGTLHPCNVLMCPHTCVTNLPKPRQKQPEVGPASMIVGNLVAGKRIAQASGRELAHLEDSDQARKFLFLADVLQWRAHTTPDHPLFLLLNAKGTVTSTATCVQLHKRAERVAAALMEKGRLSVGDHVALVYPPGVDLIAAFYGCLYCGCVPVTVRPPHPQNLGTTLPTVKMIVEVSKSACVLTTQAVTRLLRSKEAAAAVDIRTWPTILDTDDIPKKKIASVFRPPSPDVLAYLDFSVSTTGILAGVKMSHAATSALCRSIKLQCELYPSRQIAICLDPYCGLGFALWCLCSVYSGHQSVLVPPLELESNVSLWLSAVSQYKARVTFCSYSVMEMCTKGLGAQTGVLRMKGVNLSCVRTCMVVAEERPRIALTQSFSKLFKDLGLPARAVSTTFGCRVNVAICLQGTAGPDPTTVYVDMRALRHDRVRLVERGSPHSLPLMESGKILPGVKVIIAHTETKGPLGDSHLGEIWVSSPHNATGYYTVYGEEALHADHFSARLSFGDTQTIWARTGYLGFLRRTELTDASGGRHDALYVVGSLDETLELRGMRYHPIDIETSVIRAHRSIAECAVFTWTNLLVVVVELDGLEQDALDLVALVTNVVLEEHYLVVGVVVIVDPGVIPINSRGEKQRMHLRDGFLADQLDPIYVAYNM
UniProt P13498: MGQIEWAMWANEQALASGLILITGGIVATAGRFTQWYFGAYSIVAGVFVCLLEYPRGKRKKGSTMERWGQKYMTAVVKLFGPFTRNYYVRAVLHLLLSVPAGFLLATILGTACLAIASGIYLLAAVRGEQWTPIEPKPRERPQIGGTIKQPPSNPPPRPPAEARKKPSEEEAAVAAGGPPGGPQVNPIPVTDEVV
UniProt Q13574: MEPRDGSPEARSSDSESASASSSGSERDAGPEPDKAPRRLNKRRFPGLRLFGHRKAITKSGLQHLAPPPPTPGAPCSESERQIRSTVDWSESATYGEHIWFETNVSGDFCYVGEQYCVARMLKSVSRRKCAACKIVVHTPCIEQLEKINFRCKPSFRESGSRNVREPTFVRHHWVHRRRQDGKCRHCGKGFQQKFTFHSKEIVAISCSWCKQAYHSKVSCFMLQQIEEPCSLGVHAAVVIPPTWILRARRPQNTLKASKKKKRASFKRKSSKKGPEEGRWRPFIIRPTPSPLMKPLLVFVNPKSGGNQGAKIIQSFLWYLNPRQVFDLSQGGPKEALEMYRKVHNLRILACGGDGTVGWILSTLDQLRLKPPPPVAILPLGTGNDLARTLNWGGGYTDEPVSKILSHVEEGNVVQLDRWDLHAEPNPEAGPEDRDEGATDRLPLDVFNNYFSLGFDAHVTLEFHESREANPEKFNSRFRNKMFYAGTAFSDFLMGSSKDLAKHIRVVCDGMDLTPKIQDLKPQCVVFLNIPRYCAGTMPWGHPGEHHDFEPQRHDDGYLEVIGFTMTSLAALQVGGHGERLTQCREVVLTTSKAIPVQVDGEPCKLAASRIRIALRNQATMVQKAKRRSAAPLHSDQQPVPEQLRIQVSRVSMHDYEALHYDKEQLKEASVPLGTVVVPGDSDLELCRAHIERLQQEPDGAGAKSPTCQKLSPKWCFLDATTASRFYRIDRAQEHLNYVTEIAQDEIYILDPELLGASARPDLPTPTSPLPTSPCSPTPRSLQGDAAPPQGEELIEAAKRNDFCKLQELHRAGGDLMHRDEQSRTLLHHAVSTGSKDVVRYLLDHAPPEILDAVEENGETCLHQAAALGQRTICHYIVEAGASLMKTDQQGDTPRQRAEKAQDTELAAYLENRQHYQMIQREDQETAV
UniProt Q9NPF5, whole entry: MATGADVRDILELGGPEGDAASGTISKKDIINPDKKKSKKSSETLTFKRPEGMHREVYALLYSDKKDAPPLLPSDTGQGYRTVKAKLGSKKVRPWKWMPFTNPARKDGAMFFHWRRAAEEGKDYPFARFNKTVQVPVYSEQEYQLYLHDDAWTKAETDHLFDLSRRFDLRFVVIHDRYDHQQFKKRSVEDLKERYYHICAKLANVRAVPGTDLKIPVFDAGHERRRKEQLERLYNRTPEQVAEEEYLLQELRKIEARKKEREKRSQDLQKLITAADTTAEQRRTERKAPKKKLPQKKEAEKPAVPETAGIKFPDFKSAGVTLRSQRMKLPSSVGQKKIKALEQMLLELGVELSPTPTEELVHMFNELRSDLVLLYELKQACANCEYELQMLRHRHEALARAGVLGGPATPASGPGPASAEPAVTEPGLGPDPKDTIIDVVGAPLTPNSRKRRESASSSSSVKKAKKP
UniProt Q9NSV4, whole entry: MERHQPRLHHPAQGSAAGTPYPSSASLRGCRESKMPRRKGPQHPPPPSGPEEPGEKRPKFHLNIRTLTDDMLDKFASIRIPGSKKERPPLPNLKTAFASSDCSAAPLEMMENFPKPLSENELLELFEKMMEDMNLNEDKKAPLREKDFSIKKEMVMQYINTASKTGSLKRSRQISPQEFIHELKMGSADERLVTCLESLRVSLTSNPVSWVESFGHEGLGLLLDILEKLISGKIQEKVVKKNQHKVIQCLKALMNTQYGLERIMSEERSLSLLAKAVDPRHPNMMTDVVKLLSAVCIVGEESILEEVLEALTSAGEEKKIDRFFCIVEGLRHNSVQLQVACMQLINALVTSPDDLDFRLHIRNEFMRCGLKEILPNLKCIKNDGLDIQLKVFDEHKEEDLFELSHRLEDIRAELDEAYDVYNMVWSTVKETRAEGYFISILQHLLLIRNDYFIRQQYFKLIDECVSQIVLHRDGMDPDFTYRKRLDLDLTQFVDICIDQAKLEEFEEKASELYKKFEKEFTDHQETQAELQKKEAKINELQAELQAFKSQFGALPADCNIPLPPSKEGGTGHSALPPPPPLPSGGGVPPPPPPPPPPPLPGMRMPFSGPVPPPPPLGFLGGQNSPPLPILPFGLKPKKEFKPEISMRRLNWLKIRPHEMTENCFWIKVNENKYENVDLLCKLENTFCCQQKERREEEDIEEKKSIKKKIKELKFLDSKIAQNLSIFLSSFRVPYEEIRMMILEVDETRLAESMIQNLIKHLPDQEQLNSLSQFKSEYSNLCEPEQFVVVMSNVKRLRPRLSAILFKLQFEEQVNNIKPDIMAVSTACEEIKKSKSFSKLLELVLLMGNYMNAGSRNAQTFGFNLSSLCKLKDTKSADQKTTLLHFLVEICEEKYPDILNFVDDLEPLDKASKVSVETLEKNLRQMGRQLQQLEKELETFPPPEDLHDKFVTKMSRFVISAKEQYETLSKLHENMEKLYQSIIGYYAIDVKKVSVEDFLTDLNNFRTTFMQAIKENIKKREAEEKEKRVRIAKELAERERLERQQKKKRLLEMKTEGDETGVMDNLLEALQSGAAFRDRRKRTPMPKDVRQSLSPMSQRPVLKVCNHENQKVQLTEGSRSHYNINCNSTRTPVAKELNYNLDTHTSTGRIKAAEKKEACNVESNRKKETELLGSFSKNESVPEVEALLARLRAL
UniProt Q7L591: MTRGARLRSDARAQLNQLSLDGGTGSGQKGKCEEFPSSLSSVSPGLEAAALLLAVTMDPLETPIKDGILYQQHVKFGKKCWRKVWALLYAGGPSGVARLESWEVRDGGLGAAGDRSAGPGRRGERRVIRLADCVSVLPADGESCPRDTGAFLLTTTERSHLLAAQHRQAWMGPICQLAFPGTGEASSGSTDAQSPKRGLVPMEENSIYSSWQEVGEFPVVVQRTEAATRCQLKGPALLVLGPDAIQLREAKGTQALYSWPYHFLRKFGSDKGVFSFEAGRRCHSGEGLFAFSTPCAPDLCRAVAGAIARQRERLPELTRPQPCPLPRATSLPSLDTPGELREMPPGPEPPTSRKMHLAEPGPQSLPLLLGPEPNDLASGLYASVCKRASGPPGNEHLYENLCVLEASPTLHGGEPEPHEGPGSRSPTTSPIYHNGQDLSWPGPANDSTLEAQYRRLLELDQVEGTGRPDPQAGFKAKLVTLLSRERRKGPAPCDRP
UniProt P07339: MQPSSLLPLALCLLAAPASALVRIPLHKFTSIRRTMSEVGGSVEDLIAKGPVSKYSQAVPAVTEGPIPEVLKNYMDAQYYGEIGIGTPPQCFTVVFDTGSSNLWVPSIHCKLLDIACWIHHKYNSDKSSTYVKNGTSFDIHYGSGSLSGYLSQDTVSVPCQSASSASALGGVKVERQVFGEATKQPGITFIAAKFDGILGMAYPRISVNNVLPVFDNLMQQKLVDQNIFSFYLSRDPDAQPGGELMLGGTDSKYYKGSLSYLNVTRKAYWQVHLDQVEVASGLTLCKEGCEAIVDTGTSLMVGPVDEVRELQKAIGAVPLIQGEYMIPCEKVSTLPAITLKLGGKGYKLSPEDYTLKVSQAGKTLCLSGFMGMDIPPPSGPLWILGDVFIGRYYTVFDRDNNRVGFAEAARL
UniProt P51397: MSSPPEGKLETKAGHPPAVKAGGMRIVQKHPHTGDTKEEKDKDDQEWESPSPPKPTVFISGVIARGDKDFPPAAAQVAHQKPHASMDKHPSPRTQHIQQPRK

What follows are targets tested with COc1ccc(Cn2ccc3cc(C)c(C(=O)NO)cc32)cc1 (assay: dose-dependent thermal stabilisation call (2D-TPP, DLPTP, 10% FDR) (binary (1 = stabilised)); higher = stabilised by the compound). Conditions: system: HL-60 intact cells; concentration range 0.04-10 µM.
Experimental: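 2D thermal proteome profiling in intact HL-60 cells treated with BRD-3811 (0, 0.04, 0.29, 2, 10 uM) for 90 min at 37 C, then heated 3 min at one of 12 temperatures (42-63.9 C). Soluble protein was quantified by TMT10 MS. The value is the DLPTP call of the paper: dose-dependent thermal stabilisation over all temperatures at 10% FDR (F-test of a dose-response against a flat model); one experiment, one call per tested protein.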

Target | dose-dependent thermal stabilisation call
DMXL2 (UniProt Q8TDJ6) | inactive: 0
DCUN1D1 (UniProt Q96GG9) | inactive: 0
CYB5R4 (UniProt Q7L1T6) | inactive: 0
CSE1L (UniProt P55060) | inactive: 0
CXORF26 (UniProt Q9BVG4) | inactive: 0
CTDSPL2 (UniProt Q05D32) | inactive: 0
DGKA (UniProt P23743) | inactive: 0
CTSC (UniProt P53634) | inactive: 0
DNAJC13 (UniProt O75165) | inactive: 0
DPY19L3 (UniProt Q6ZPD9) | inactive: 0
DDX10 (UniProt Q13206) | inactive: 0
DDX60 (UniProt Q8IY21) | inactive: 0
DIP2A (UniProt Q14689) | inactive: 0
CYBA (UniProt P13498) | inactive: 0
DGKZ (UniProt Q13574) | inactive: 0
DMAP1 (UniProt Q9NPF5) | inactive: 0
CTF8 (UniProt P0CG13) | inactive: 0
DDX27 (UniProt Q96GQ7) | inactive: 0
DNAJB11 (UniProt Q9UBS4) | inactive: 0
DIAPH3 (UniProt Q9NSV4) | inactive: 0
DOK3 (UniProt Q7L591) | inactive: 0
DNAJC16 (UniProt Q9Y2G8) | inactive: 0
CYB5B (UniProt O43169) | inactive: 0
CTSD (UniProt P07339) | inactive: 0
CST7 (UniProt O76096) | inactive: 0
CYB5A (UniProt P00167) | inactive: 0
DAP (UniProt P51397) | inactive: 0

Taken from the listing for reference:
Target | dose-dependent thermal stabilisation call
DNAJC13 (UniProt O75165) | inactive: 0
DPY19L3 (UniProt Q6ZPD9) | inactive: 0
